According to ChEMBL document CHEMBL1138663, “Synthesis and aromatase inhibitory activity of novel pyridine-containing isoflavones” (J Med Chem, 2004):
pIC50: −log10 of the molar value.

Molecular target: T1, Aromatase (Homo sapiens, UniProt P11511)
T1 sequence (P11511 whole entry): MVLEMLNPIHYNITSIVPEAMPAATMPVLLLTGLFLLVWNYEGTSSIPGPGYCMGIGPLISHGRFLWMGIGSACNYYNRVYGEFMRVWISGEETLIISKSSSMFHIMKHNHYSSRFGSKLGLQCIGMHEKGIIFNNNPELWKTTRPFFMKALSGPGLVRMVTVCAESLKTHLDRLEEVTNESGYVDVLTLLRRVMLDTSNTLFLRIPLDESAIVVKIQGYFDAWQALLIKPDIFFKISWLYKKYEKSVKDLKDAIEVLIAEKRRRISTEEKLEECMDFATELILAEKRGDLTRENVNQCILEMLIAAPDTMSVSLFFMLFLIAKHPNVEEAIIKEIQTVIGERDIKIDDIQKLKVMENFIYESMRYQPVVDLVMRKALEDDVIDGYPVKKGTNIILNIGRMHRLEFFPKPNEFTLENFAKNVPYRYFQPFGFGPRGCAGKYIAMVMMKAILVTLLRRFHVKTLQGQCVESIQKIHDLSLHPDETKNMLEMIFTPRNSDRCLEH

Compound	pIC50
C=CCSc1oc2cc(OC)ccc2c(=O)c1-c1ccccc1	< 4.00
C=CCSc1oc2cc(OCc3ccccc3)ccc2c(=O)c1-c1ccc(OC)cc1	< 4.00
